Most values lie at the floor of the assay. Slopes are relative: functional sequences can read slightly below zero.

Our source for the growth estimate values is the supplement of paper PMC5949888.

In the data set the test system is Saccharomyces cerevisiae PS128 hsf1 delta, HSF1(1-493) fusion. The data set is described as follows: growth estimate (transactivation domain function in HSF1 fusion, heat-shock survival) (a.u. (slope of normalised read count over time)); higher = stronger growth at 37°C, i.e. more transactivation activity. Particulars: library: random library.
On to RMIDWAAF, for which the growth estimate was less than -0.25. The same measure for RDMTIGSEFDYPCRLVNVVW: less than -0.25. The same measure for PSRIRSGSTSTGAADLRSGR: less than -0.25; for DIYWQNAKT: less than -0.25; for PVVCSNSFSTEADEFPGVT: less than -0.25. The same measure for IRLRGLGL: less than -0.25. As to WTTNIRGTGAFETKNRLRKP, the growth estimate was less than -0.25. With VLPLFRASVT the figure was less than -0.25. As to GDPKMSSPHT, the growth estimate is less than -0.25. GAFECLRNTVVLFVFFGPFR: the growth estimate was less than -0.25. On to NGLYIRPGDPLIFVT, for which the growth estimate is -0.248. As for TDTPPIARFSLGRYQYSLLP, the growth estimate was less than -0.25. Regarding RAKDDDPTEC, the growth estimate is less than -0.25. With GPPTEWIGCI the figure was less than -0.25; with FRSKWRAANMLTYHVTVATR, less than -0.25. With LFASSA the figure was less than -0.25; with FAHGTFGACAAAEPSKLRVR, -0.192; with QWSGGSPYEKGRFQ, less than -0.25. Turning to EWLNHRPLDICSVALQ, the growth estimate was -0.25. With YRG the figure was less than -0.25; with KGVRAGA, less than -0.25.

On to YGANTFHDSTQHFSSQWARS, for which the growth estimate was less than -0.25. Turning to QALHV, the growth estimate was less than -0.25.

Take GFSGSPAGTIALSSLRFSFK: the growth estimate was less than -0.25.

Consider AIGSNMGPVVQWPIHYARRY, for which the growth estimate was less than -0.25.

For KIVWTDLLWQAGRTSGPITE, the growth estimate was less than -0.25. Consider DKTIAY, for which the growth estimate is less than -0.25.

Consider ISLVA, for which the growth estimate was less than -0.25. With IYKRHDSLHMVQNLGRKPRG the figure was less than -0.25; with SKIVHA, -0.197.

As for EQNI, the growth estimate was less than -0.25.

With ANYTNGEVMVGYGCYLA, the growth estimate is less than -0.25. The same measure for CEKGPVQLQTHRCEGAS: less than -0.25. Take TWTYRYQYIERLRALEAPMH: the growth estimate was less than -0.25. The same measure for GSPQTLKRYGVRIWSLVSSI: less than -0.25.

Consider TGPRTTVIAQFSGTQPG, for which the growth estimate was less than -0.25.

Take GTGLVRTKWLSSGVPDQNQW: the growth estimate was less than -0.25.

For DPRNRCTELMRS, the growth estimate was less than -0.25.

SQGLLRFIEREFER: the growth estimate was less than -0.25. The same measure for NDYFRAGWLSCATM: less than -0.25; for MERRRRFWRKMCLQSMADAC: less than -0.25. With VLANIDDRCWSSRCWWSYHP the figure was less than -0.25; with SWLLRQGVNRSGGHDVSRPT, -0.245. With MGEFNCRVVFMTFRRCRRSA the figure was less than -0.25; with KLPIDAEPIGLDIVLRSSTS, less than -0.25; with QNGLSAFF, less than -0.25.

As to QRDDNRWGIVPLEYAVCSPG, the growth estimate was less than -0.25. With VPHSTLSRGLGSCLH the figure was less than -0.25. As for TGHEENSLTSKRSSFRQYTE, the growth estimate was less than -0.25. With SRPCQGKFEDGDTDDGRHGV, the growth estimate was less than -0.25. With VCYWGFRVVNLALKPD the figure was less than -0.25; with YSVWLAIDEQSSPQ, -0.222; with TTGCGMQNTPVCIEPRYVVG, less than -0.25. As for APSNNK, the growth estimate was less than -0.25. With RMLVDLQLNRITYIDGLTHQ, the growth estimate is -0.24. In the case of RSIR, the growth estimate is less than -0.25. In the case of HIVHLASPMC, the growth estimate is less than -0.25.

On to PKS, for which the growth estimate is less than -0.25. Turning to LLNVPLETCCRRPRYPFCEA, the growth estimate was less than -0.25. With RETERSEFLRPSTVGELYNS the figure was less than -0.25; with TFWR, less than -0.25; with KVVQLAQCVNYRTSFRGALG, less than -0.25.

On to YWDRSCFMGLWYSYSEGTLD, for which the growth estimate was less than -0.25. With YIQP the figure was less than -0.25. The same measure for VERCVLWMGRLAGGYGSFTA: -0.243; for LDPPWPRNRAHPGFP: less than -0.25; for AVAENPEW: -0.246. The same measure for RAAGVPTLIVLVHRLAFACV: less than -0.25; for IPGVLNR: less than -0.25. As for RTRSWYSMSIGSIGRSTISA, the growth estimate was less than -0.25. Regarding LPRRC, the growth estimate was less than -0.25. The same measure for KGEPLSNRS: less than -0.25; for MEYSLVICPKRRGDGIRELV: less than -0.25. As to VPGSRANFPFL, the growth estimate is less than -0.25.

On to PMG, for which the growth estimate was less than -0.25. The same measure for ALLRIQAADSG: less than -0.25; for LWECSEIGIVDG: less than -0.25; for DATCLRGSSHYVALAIRL: less than -0.25. With AHDSALPELRRLMRIDTARG the figure was less than -0.25.
